Results as given in patent publication US20260207616A1, “COMBINATION THERAPIES FOR TREATMENT OF HEARING DISORDERS” (GATEWAY BIOTECHNOLOGY, INC., priority 2023, published 2026).

Tested on: tinnitus positive mice
Experiment: go/no-go trials, sound-based avoidance detection (SBAD) in noise-induced tinnitus mice
Type: in vivo
Conditions: intraperitoneal injection
Description: With reference to FIGS. 1A-1D, single drug treatment of tinnitus is evaluated using the go/no-go methodology further elaborated upon in Example 4. With reference to FIGS. 2A-2B, multi drug treatment of tinnitus is evaluated using the go/no-go methodology further elaborated upon in Example 4. […] Using a shuttle box divided into two compartments, mice were trained to cross from side to side with sound cues in the “Go” trials and remain still in the absence of sound in the “No-Go” trials for 15 days. […] The sound cues were randomly played as white noise or narrow-band noise at 8,10,12.5,16, and 29 kHz with sound intensities randomly at 75, 80, or 85 dB. […] Additionally, a hurdle was added on training 11 to reinforce the training. After the 15th training day, mice were tested for 3 days to obtain a baseline score to be compared after noise exposure, as well as retraining for 3 days. Following the successful completion of training so that mice reached a high percentage of success in the trials, the mice were exposed to a noise-induced trauma for tinnitus over a two day period. To ensure that the mice still have their hearing, one ear was protected with an ear plug, while the other ear was exposed to the noise. The mice were placed in a sound booth where they were exposed to 120 dB broadband noise at 4-25 kHz for two hours. […]

SMILES: NC(=O)N1c2ccccc2C=Cc2ccccc21 [CBZ, carbamazepine]
- correct rate in the Go trial (CBZ 5 and 8 mg/kg): ~100%

SMILES: CCC1(C)CC(=O)NC1=O (centres unmarked) [ESM, ethosuximide]
- correct rate in the Go trial (ESM 300 mg/kg): ~100%
